PubChem BioAssay AID504774 | Drosophila RNAi Screening Center – 2011
Aim: 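Fly genes whose loss alters survival after alkylation damage to DNA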 (primary screen). Cells: Drosophila Kc167 cells. Reagent: long dsRNA against Drosophila genes, about 0.25 µg dsRNA per well. Timing: about 6 days: 3 days knock-down, then 3 days with or without MMS. Conditions: methyl methanesulphonate 0.004% (w/v) for 3 days after knock-down. Measurement: 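Viability in wells given MMS, read as ATP luminescence, normalised by quantiles plate by plate and averaged across replicates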. Reading the numbers: mean viability with MMS: higher = more surviving cells after MMS.
The deposit covers about 23,000 reagents; below is an unselected part of those that have a named target and a result. 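Values are quantile-normalised luminescence on an arbitrary scale; higher means more cells surviving MMS.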 Names joined by + are all predicted targets of the reagent. Not all columns of the deposit are shown.

mean viability with MMS, by gene and reagent
CREG: DRSC16595 3.51e6
CG15767: DRSC18073 3.47e6
smo: DRSC00837 3.63e6
CG15011: DRSC08464 3.54e6
CG10598: DRSC19358 3.30e6
CG15125: DRSC06547 3.47e6
Nsf2: DRSC22104 3.71e6
lectin-29Ca: DRSC02635 3.58e6
Pih1D1: DRSC02897 3.64e6
Paip2: DRSC14504 3.71e6
FASN3: DRSC20882 3.50e6
GABPI: DRSC00494 3.41e6
CG34244: DRSC09304 3.67e6
Ucp4A: DRSC19996 3.64e6
P5CS: DRSC11831 3.62e6; DRSC11832 3.60e6
CG13039: DRSC09920 3.42e6
CG32727: DRSC17519 3.59e6
CG10859: DRSC02110 3.36e6
BomS2: DRSC21488 3.58e6
CG1273: DRSC08291 3.45e6
Pk34A: DRSC03398 3.61e6
CG42324: DRSC08431 3.49e6; DRSC08432 3.52e6
CG31038: DRSC15051 3.48e6; DRSC16326 3.36e6; DRSC16327 3.46e6
CG4269: DRSC04457 3.96e6
AQP: DRSC06122 3.54e6
Caper: DRSC02137 3.12e6
rpr: DRSC11390 3.61e6
Rrp4: DRSC04434 3.56e6
lost: DRSC12002 3.50e6; DRSC12234 3.57e6; DRSC21987 3.47e6
CG4115: DRSC15545 3.57e6
CG31288: DRSC14667 3.53e6

Sorted by “mean viability with MMS” (highest first): some entries from above
Gene	dsRNA	mean viability with MMS
P5CS	DRSC11831	3.62e6
Pk34A	DRSC03398	3.61e6
P5CS	DRSC11832	3.60e6
CG32727	DRSC17519	3.59e6
BomS2	DRSC21488	3.58e6
CG42324	DRSC08432	3.52e6
CG42324	DRSC08431	3.49e6
CG31038	DRSC15051	3.48e6
CG1273	DRSC08291	3.45e6
CG13039	DRSC09920	3.42e6
CG10859	DRSC02110	3.36e6
CG31038	DRSC16326	3.36e6

Further entries follow.
mean viability with MMS, by gene and reagent
Tsp68C: DRSC09295 3.57e6
vig: DRSC03630 3.62e6; DRSC03631 3.54e6; DRSC21672 3.60e6
Ctu1: DRSC07069 3.47e6
CG13793: DRSC02297 3.54e6
CG13760: DRSC18617 3.49e6
CG31998: DRSC17137 3.53e6; DRSC17138 3.50e6
CG42458: DRSC10335 3.02e6; DRSC23129 3.56e6; DRSC23261 3.26e6
ProRS-m: DRSC08261 3.44e6
Zasp67: DRSC10169 3.68e6
CG18417: DRSC10319 3.66e6
Tapdelta: DRSC05946 3.65e6
Or22a: DRSC00764 3.45e6
CG4586: DRSC18373 3.52e6
CG33333: DRSC13233 3.66e6
CG3708: DRSC18646 3.62e6
CG17036: DRSC02564 3.53e6
CG3603: DRSC18317 3.49e6
Fign: DRSC00592 3.71e6
CG8191 + CG12379: DRSC19451 3.42e6
Lip4: DRSC02930 3.49e6
CG6418: DRSC10633 3.22e6
CG13437: DRSC06397 3.61e6
Notum: DRSC09959 3.45e6
CG14823: DRSC10194 3.63e6
CG13325: DRSC06362 3.37e6
CG15059: DRSC19633 3.57e6
Stat92E: DRSC16870 3.57e6
CG12836: DRSC06182 3.65e6
G6P: DRSC00414 3.42e6
tra: DRSC11405 3.66e6
alph: DRSC15398 3.61e6
Eglp2: DRSC04294 3.62e6
CG4301: DRSC19886 3.66e6
mbm: DRSC00319 3.54e6
gammaSnap2: DRSC15992 3.57e6
Ccp84Ag: DRSC12592 3.62e6; DRSC22085 3.66e6
MED7: DRSC16059 2.91e6
CG13700: DRSC10049 3.61e6
Acbp5: DRSC10548 3.69e6
hgo: DRSC03544 3.77e6
CG13449: DRSC09996 3.59e6
CG14650: DRSC12236 3.52e6
sage: DRSC14580 1.73e6
CG7276: DRSC10797 3.60e6
